Data published in PMC7210271.

How the values were obtained:
[1] = test system: DNMT3A R882H MTase domain + DNMT3L C-terminal domain; assay: ITC; conditions: no appreciable binding, N.M.; ITC: 20 mM Tris-HCl pH 7.5, 100 mM NaCl, 5% glycerol, 4 C; recombinant protein; protein details: N-terminal His6-SUMO removed by ULP1
[2] = test system: DNMT3A WT MTase domain + DNMT3L C-terminal domain; assay: ITC; conditions: ITC: 20 mM Tris-HCl pH 7.5, 100 mM NaCl, 5% glycerol, 4 C; recombinant protein; protein details: N-terminal His6-SUMO removed by ULP1

In the case of “GACGACGACGACGACGACGACGAC (double strand) [24-mer (GAC)8 DNA]”, the binding result [1] is reported as “no binding” and the Kd [2] is reported as 9.8 µM.

The exact form of at least one protein or probe is not confirmed. For some assays here: Negatives hold for the conditions tested.
